According to PMC2391170:
These are yes or no findings as the source states them, for the method shown. Some results given as binding are weak or reduced against the parent protein; the word gives no strength.

Key:
AtFIPS3 (Arabidopsis) = target: T1, AtFIPS3 (Arabidopsis) (UniProt F4JC20); experiment: two-hybrid; AD (pGAD-C(1)) and BD (pGBD-C(1)) fusions in yeast PJ69-4; dual transformants tested on media lacking leucine, tryptophan and adenine; positive if all tested colonies (4 to 10) grew; both combinations of clones tested whenever possible
T1 sequence: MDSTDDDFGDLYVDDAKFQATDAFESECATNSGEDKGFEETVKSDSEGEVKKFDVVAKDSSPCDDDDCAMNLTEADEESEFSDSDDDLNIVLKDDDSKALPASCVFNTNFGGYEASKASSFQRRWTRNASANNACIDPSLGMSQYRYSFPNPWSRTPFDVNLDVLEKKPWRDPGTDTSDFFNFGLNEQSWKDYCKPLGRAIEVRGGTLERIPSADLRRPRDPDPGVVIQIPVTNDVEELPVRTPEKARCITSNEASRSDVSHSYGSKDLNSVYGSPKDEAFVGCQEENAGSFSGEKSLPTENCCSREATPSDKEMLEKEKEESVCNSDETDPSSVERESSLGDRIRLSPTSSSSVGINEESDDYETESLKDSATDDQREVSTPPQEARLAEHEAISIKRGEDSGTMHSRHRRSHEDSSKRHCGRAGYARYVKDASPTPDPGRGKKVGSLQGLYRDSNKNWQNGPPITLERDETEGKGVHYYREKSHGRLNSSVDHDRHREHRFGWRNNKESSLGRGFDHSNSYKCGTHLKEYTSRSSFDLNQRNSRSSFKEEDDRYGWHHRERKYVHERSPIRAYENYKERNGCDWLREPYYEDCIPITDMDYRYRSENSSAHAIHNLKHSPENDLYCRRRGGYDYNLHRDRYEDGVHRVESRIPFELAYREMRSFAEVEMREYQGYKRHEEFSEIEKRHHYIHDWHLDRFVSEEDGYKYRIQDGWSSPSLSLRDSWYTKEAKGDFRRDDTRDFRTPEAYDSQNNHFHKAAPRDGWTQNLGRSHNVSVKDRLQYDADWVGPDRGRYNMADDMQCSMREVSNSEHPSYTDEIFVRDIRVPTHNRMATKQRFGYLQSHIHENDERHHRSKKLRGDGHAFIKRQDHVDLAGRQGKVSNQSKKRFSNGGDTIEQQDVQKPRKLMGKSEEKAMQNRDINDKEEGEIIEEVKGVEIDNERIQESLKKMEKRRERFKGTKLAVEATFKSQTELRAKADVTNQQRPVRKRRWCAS

AtCPSF160 (Arabidopsis) = target: T2, AtCPSF160 (Arabidopsis) (UniProt Q9FGR0); experiment: as above
T2 sequence: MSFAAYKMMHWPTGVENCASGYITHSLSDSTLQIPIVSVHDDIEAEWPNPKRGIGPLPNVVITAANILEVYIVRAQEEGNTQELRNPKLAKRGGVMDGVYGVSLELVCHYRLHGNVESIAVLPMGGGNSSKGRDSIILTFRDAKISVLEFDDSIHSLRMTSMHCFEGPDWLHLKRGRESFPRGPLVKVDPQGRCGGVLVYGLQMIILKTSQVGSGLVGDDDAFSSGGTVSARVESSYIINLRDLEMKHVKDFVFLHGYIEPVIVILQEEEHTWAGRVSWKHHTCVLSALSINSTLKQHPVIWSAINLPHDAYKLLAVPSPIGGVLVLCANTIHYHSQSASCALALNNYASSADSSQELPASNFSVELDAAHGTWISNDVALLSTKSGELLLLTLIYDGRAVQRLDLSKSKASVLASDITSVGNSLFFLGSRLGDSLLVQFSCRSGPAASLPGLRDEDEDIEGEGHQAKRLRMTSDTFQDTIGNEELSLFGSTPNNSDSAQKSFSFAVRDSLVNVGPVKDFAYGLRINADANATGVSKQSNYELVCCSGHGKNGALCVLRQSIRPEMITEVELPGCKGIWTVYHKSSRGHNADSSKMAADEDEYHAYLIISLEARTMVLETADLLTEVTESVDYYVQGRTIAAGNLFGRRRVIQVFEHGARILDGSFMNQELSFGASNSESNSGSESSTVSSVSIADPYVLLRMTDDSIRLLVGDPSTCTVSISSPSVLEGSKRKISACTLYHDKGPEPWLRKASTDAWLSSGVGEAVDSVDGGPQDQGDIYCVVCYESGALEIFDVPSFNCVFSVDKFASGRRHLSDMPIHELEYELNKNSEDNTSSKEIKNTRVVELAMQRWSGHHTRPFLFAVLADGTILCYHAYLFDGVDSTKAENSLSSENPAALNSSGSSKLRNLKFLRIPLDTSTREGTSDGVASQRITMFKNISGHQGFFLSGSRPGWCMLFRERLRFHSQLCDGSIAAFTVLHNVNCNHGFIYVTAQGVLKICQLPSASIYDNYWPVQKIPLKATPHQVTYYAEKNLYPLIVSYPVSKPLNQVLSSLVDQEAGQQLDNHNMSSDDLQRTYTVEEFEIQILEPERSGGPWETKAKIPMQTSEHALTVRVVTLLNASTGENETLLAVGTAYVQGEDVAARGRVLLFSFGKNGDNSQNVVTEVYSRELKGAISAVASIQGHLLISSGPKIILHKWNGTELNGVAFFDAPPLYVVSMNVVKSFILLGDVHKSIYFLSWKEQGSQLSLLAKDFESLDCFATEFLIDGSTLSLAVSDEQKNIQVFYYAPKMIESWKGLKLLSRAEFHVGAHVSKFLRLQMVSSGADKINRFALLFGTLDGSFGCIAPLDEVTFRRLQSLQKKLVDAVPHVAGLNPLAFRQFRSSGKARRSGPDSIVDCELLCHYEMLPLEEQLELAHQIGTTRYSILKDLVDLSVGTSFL

binding (AtFIPS3 (Arabidopsis)): binds | binding (AtCPSF160 (Arabidopsis)): binds
B1: AtCPSF30 (protein, UniProt A9LNK9-2 1-250)
chain: MEDADGLSFDFEGGLDSGPVQNTASVPVAPPENSSSAAVNVAPTYDHSSATVAGAGRGRSFRQTVCRHWLRGLCMKGDACGFLHQFDKARMPICRFFRLYGECREQDCVYKHTNEDIKECNMYKLGFCPNGPDCRYRHAKLPGPPPPVEEVLQKIQQLTTYNYGTNRLYQARNVAPQLQDRPQGQVPMQGQPQESGNLQQQQQQQPQQSQHQVSQTLIPNPADQTNRTSHPLPQGVNRCVQSPKVFNWVL
